According to PubChem BioAssay AID328 (DTP/NCI, 2004):
The list is a part of this screen's results and no random one: it is rich in T/C values a quarter to a half above the control, in often repeated tests (any T/C) and in doses without a T/C. Further doses and runs are listed elsewhere. T/C is the treated group as % of the vehicle group. Some entries give survivors of the animals treated and no T/C: the source files T/C as zero there, which appears to mark a toxic dose or a test without result, not a measured value. Some doses without a T/C left all or most animals alive at the check, yet need not have been tolerated: the source hardly ever lists a survival T/C far under the control, and the zero likely stands for such cases as well. Survivors were counted at the toxicity check, usually on the fifth day, unless a day is given; later deaths do not show. Schedule codes are those of the source, taken here to give the interval after Q, in days (D) or hours (H), and the number of doses after X. Some entries hold several experiments; their values stand side by side, smallest first. Where survival is the endpoint, this PubChem deposit counts one and a half times the control or more as active, and values a quarter to a half above the control carry no call in these data; other NCI protocols may use other cut-offs. Some T/C values carry the count of animals alive at the toxicity check (mostly the fifth day); without a count, all were alive then.

System: BDF1 mice, P388 leukemia ip, median survival T/C
Assay: NCI In Vivo Anticancer Drug Screen. Data for tumor model P388 Leukemia (intraperitoneal) in B6D2F1 (BDF1) mice
Settings: T/C endpoint: median survival time, higher T/C = longer survival
In short: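 T/C = treated-group survival ÷ vehicle-control survival; tumour transplanted into mice before dosing.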

[1] = dose: 100.0 mg/kg/injection, schedule: Q04DX003 (ip), vehicle: saline with Tween-80
[2] = dose: 200.0 mg/kg/injection, schedule: Q04DX003 (ip), vehicle: saline with Tween-80
[3] = dose: 400.0 mg/kg/injection, schedule: Q04DX003 (ip), vehicle: saline with Tween-80
[4] = dose: 200.0 mg/kg/injection, schedule: Q01DX009 (ip), vehicle: saline with Tween-80
[5] = dose: 400.0 mg/kg/injection, schedule: Q01DX009 (ip), vehicle: saline with Tween-80
[6] = dose: 100.0 mg/kg/injection, schedule: Q01DX009 (ip), vehicle: Klucel (hydroxypropylcellulose) (HPC)
[7] = dose: 100.0 mg/kg/injection, schedule: Q01DX009 (ip), vehicle: saline
[8] = dose: 200.0 mg/kg/injection, schedule: Q01DX009 (ip), vehicle: saline
[9] = dose: 400.0 mg/kg/injection, schedule: Q01DX009 (ip), vehicle: saline
[10] = dose: 75.0 mg/kg/injection, schedule: Q01DX009 (ip), vehicle: saline with Tween-80
[11] = dose: 150.0 mg/kg/injection, schedule: Q01DX009 (ip), vehicle: saline with Tween-80

SMILES: CCCCCCCCCCCC[n+]1ccc2ccccc2c1
- survivor count (dose: 2.0 mg/kg/injection, schedule: Q01DX010 (ip), vehicle: saline): 1 of 6
- survivor count (dose: 4.0 mg/kg/injection, schedule: Q01DX010 (ip), vehicle: saline): 0 of 6
- survivor count (dose: 8.0 mg/kg/injection, schedule: Q01DX010 (ip), vehicle: saline): 0 of 6

SMILES: Oc1ccc(I)c2cccnc12
- survivor count (dose: 125.0 mg/kg/injection, schedule: Q01DX010 (ip), vehicle: carboxymethylcellulose (CMC)): 6 of 6

SMILES: CCCCC(OC(=O)c1ccccc1)c1cc(OC(=O)c2ccccc2)c2c(c1OC(=O)c1ccccc1)CC(C)=C(C)C2 (stereo unspecified)
- survivor count (dose: 50.0 mg/kg/injection, schedule: Q04DX003 (ip), vehicle: saline with Tween-80): 3 of 6
- survivor count [1]: 2 of 6
- survivor count [2]: 0 of 6
- survivor count [3]: 0 of 6

SMILES: O=CN(c1ccccc1)c1ccccc1
- T/C (dose: 265.0 mg/kg/injection, schedule: Q04DX003 (ip), vehicle: saline with Tween-80): 125 % of control
- T/C (dose: 400.0 mg/kg/injection, schedule: Q04DX003 (ip), vehicle: other): 141 % of control [5 of 6 alive]

SMILES: NC(=O)C(Br)CBr (stereo unspecified)
- survivor count (dose: 12.5 mg/kg/injection, schedule: Q01DX009 (ip), vehicle: saline): 6 of 6
- survivor count [4]: 0 of 6
- survivor count [5]: 0 of 6

SMILES: C(=C\c1cccnc1)/c1ccncc1
- T/C (dose: 50.0 mg/kg/injection, schedule: Q01DX009 (ip), vehicle: Klucel (hydroxypropylcellulose) (HPC)): 133 % of control
- T/C [6]: 144 % of control
- survivor count (dose: 200.0 mg/kg/injection, schedule: Q01DX009 (ip), vehicle: Klucel (hydroxypropylcellulose) (HPC)): 0 of 6
- survivor count (dose: 400.0 mg/kg/injection, schedule: Q04DX003 (ip), vehicle: Klucel (hydroxypropylcellulose) (HPC)): 0 of 6

SMILES: CC([OH2+])CNCCN.CC([OH2+])CNCCN.O=[N+]([O-])[O-].[Ni+2] (stereo unspecified)
- survivor count (dose: 50.0 mg/kg/injection, schedule: Q01DX009 (ip), vehicle: saline): 6 of 6
- survivor count [7]: 1 of 6
- survivor count [8]: 0 of 6

SMILES: COC1C(OC(=O)/C=C/C=C/C=C/C=C/C(=O)O)CCC2(CO2)C1C1(C)OC1CC=C(C)C (stereo unspecified)
- T/C [7]: 141 % of control
- T/C [8]: 125 % of control
- survivor count [2]: 6 of 6
- T/C (dose: 266.0 mg/kg/injection, schedule: Q04DX003 (ip), vehicle: saline): 125 % of control
- survivor count [9]: 0 of 6
- T/C (dose: 400.0 mg/kg/injection, schedule: Q04DX003 (ip), vehicle: saline): 130 and 133 % of control [5 of 6 alive]
- survivor count (dose: 600.0 mg/kg/injection, schedule: Q04DX003 (ip), vehicle: saline): 1 of 6

SMILES: NC(N)=N/N=C/c1ccc(Cl)c(Cl)c1
- survivor count [6]: 1 of 6

SMILES: CCOC(=O)C(N)Cc1ccc(N(CCCl)CCCl)cc1 (stereo unspecified)
- survivor count [1]: 1 of 6
- survivor count [2]: 0 of 6
- survivor count [3]: 0 of 6

SMILES: CCCCCCCCCCCCCCCC(=O)NCCO
- T/C (dose: 50.0 mg/kg/injection, schedule: Q04DX003 (ip), vehicle: saline sonified): 141 % of control
- survivor count (dose: 200.0 mg/kg/injection, schedule: Q04DX003 (ip), vehicle: saline sonified): 6 of 6

SMILES: CCCC[P+](c1ccccc1)(c1ccccc1)c1ccccc1
- T/C (dose: 1.25 mg/kg/injection, schedule: Q01DX009 (ip), vehicle: saline): 144 % of control
- T/C (dose: 2.5 mg/kg/injection, schedule: Q01DX009 (ip), vehicle: saline): 125 % of control
- T/C (dose: 5.0 mg/kg/injection, schedule: Q01DX009 (ip), vehicle: saline): 138 % of control
- T/C (dose: 10.0 mg/kg/injection, schedule: Q01DX009 (ip), vehicle: saline): 130 [5 of 6 alive] and 131 % of control
- T/C (dose: 20.0 mg/kg/injection, schedule: Q01DX009 (ip), vehicle: saline): 127 % of control [5 of 6 alive]
- survivor count (dose: 80.0 mg/kg/injection, schedule: Q01DX009 (ip), vehicle: saline): 0 of 6

SMILES: CCCCCCCCCCCCCCCC(=O)N(c1ccc(NC(=O)Nc2ccc(N(C(=O)CCCCCCCCCCCCCCC)C(C)CCCN(CC)CC)cc2)cc1)C(C)CCCN(CC)CC (stereo unspecified)
- survivor count (dose: 18.75 mg/kg/injection, schedule: Q01DX009 (ip), vehicle: saline with Tween-80): 4 of 6
- survivor count (dose: 37.5 mg/kg/injection, schedule: Q01DX009 (ip), vehicle: saline with Tween-80): 6 of 6
- survivor count [10]: 6 of 6
- survivor count (dose: 100.0 mg/kg/injection, schedule: Q01DX009 (ip), vehicle: saline with Tween-80): 6 of 6
- survivor count [11]: 6 of 6
- survivor count [4]: 6 of 6
- survivor count [5]: 6 of 6

SMILES: O=c1[nH]cc[nH]1
- T/C (dose: 264.0 mg/kg/injection, schedule: Q01DX009 (ip), vehicle: saline): 140 % of control
- T/C [9]: 125 and 133 % of control [5 of 6 alive]

SMILES: O=S1(=O)C=CCC2C3CCC(C3)C21 (stereo unspecified)
- survivor count (dose: 400.0 mg/kg/injection, schedule: Q01DX001 (ip), vehicle: saline with Tween-80): 0 of 6

SMILES: COc1cc2c(cc1OC)-c1c(C)c3ccc(OC)c(NCCN)c3c[n+]1CC2
- T/C (dose: 12.5 mg/kg/injection, schedule: Q04DX003 (ip), vehicle: water): 130 % of control
- survivor count (dose: 50.0 mg/kg/injection, schedule: Q04DX003 (ip), vehicle: water): 0 of 6 and 5 of 5

SMILES: NC(Cc1ccc(OC2CCCC2)c(N(CCCl)CCCl)c1)C(=O)O (stereo unspecified)
- T/C (dose: 0.25 mg/kg/injection, schedule: Q04DX003 (ip), vehicle: Klucel (hydroxypropylcellulose) (HPC)): 136 % of control
- survivor count (dose: 10.0 mg/kg/injection, schedule: Q04DX003 (ip), vehicle: saline): 6 of 6
- survivor count (dose: 30.0 mg/kg/injection, schedule: Q04DX003 (ip), vehicle: other): 3 of 6
- survivor count (dose: 45.0 mg/kg/injection, schedule: Q04DX003 (ip), vehicle: other): 4 of 6

SMILES: Cc1ccc2cc3c(ccc4ccccc43)c3c2c1CC3
- T/C (dose: 11.0 mg/kg/injection, schedule: Q01DX009 (ip), vehicle: saline with Tween-80): 126 % of control
- T/C (dose: 16.5 mg/kg/injection, schedule: Q01DX009 (ip), vehicle: saline with Tween-80): 126 % of control
- survivor count (dose: 22.0 mg/kg/injection, schedule: Q01DX009 (ip), vehicle: saline with Tween-80): 6 of 6
- survivor count (dose: 33.0 mg/kg/injection, schedule: Q01DX009 (ip), vehicle: saline with Tween-80): 6 of 6
- survivor count (dose: 50.0 mg/kg/injection, schedule: Q01DX009 (ip), vehicle: saline with Tween-80): 6 of 6
- survivor count [10]: 6 of 6
- T/C [11]: 131 % of control
- T/C [2]: 127 % of control
- T/C [5]: 129 % of control

SMILES: COc1cc2cc(c1Cl)N(C)C(=O)/C=C/C1(C)OC1C(C)C1CC(O)(NC(=O)O1)C(OC)C=C/C=C(\C)C2 (stereo unspecified)
- survivor count (dose: 6.3 micrograms/kg/injection, schedule: Q01DX009 (ip), vehicle: saline + alcohol): 6 of 6
- survivor count (dose: 12.5 micrograms/kg/injection, schedule: Q01DX009 (ip), vehicle: saline + alcohol): 6 of 6
- survivor count (dose: 25.0 micrograms/kg/injection, schedule: Q01DX009 (ip), vehicle: saline + alcohol): 6 of 6
- survivor count (dose: 50.0 micrograms/kg/injection, schedule: Q01DX009 (ip), vehicle: saline + alcohol): 6 of 6

SMILES: Cc1cc(N2CCOCC2)nc(N2CCOCC2)c1C#N
- survivor count (dose: 50.0 mg/kg/injection, schedule: Q01DX005 (ip), vehicle: saline with Tween-80): 4 of 5

SMILES: Cc1ccc(S[Si](Sc2ccc(C)cc2)(Sc2ccc(C)cc2)Sc2ccc(C)cc2)cc1
- survivor count (dose: 100.0 mg/kg/injection, schedule: Q04DX002 (ip), vehicle: saline with Tween-80): 6 of 6

SMILES: CCOC(=O)CNCc1ccc(Cl)c(Cl)c1
- survivor count (dose: 400.0 mg/kg/injection, schedule: Q04DX003 (ip), vehicle: water): 2 of 6
